Assay results: publication doi:10.1101/2023.04.06.535843

Tests used:
Test in all cases: co-IP
[1] = molecular target: T1, zebrafish Lhx1b (zebrafish) (UniProt O13106)
T1 sequence: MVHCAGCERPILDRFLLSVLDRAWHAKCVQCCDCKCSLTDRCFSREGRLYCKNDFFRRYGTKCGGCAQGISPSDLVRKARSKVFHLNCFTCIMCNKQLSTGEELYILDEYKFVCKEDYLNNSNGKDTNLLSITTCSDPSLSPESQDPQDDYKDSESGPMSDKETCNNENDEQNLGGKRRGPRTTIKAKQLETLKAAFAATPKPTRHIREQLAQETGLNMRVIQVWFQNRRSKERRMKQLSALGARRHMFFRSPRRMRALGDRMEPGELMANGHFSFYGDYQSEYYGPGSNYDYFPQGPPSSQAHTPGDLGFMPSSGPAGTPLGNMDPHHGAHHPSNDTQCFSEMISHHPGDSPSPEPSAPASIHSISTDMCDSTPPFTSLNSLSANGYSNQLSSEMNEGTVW

[2] = molecular target: T2, zebrafish Lhx5 (zebrafish) (UniProt P52889)
T2 sequence: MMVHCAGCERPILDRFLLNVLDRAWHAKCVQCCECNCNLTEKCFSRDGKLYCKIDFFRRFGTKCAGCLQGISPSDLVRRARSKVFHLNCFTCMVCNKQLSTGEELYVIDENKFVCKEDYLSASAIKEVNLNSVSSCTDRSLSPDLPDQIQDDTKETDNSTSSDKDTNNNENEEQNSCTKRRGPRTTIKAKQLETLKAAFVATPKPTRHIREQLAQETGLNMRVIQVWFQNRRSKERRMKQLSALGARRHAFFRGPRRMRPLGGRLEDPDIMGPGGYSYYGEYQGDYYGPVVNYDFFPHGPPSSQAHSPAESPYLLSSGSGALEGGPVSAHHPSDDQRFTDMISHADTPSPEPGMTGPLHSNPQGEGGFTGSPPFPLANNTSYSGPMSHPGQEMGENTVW

[3] = molecular target: T3, zebrafish Lhx1a (zebrafish) (UniProt Q90476)
T3 sequence: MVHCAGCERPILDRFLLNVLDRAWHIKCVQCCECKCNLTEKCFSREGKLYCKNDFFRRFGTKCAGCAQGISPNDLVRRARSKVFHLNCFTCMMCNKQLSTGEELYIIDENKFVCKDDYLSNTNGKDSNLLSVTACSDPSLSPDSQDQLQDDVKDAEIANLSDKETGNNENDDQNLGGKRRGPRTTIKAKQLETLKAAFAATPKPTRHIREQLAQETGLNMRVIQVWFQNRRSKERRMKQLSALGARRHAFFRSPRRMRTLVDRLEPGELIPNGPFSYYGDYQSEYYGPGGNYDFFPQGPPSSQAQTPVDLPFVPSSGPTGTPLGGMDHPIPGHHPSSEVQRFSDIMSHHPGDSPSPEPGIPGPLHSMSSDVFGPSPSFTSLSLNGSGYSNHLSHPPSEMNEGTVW

binding [1]: binds
binding [2]: binds
binding [3]: binds
Substance: zebrafish Skor2

These are yes or no findings as the source states them, for the method shown. Binding seen in cells or lysates may run through a third protein. Binding calls can cover weak binding; strength is not graded here.
